Results deposited as PubChem BioAssay AID1508597 (Cure First, 2020)

Screen: 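Survival screen with siRNA in ovarian cancer cells derived from patients, with or without rucaparib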 (primary screen)
Cells: human ovarian carcinoma lines grown from tumours: OCI-P5x (papillary serous) and OCI-C5x (clear cell)
Reagent: siRNA pool against human genes, 1.25 pmol siRNA per well
Timing: 72 h or 96 h, depending on the cell culture
Treatment: rucaparib 20 µM (about IC30) or vehicle, present until read-out
Rucaparib or vehicle: Rucaparib
Cell line: OCI-C5x (clear cell)
Read-out: 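ATP luminescence measured at 72 or 96 h according to the culture, then normalised and expressed as percent viability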
Direction: viability, normalised: higher = more viable cells remaining
Rule for the call: 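a well counts as a hit if its normalised viability is under 80 percent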
Meaning of the calls: active = viability under 80%; inactive = viability 80% or more
Shown is an unselected part of the about 2,100 reagents, in one setting of the screen. 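Calls flag viability under 80% in either arm, not effects specific to rucaparib; the reference for percent is not stated.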 Entries without a mark were called inactive. A reagent listed more than once was tested more than once; the source does not tell the runs apart. Not stated in the record: the 100% reference.

Gene,PubChem SID,technical replicate,"viability, normalised (%)"
MAP3K12 (mitogen-activated protein kinase kinase kinase 12),SID405527636,1,61 (active)
MAP3K12 (mitogen-activated protein kinase kinase kinase 12),SID405527636,2,61.9 (active)
MAP3K12 (mitogen-activated protein kinase kinase kinase 12),SID405527636,3,53.5 (active)
CLDN12 (claudin 12),SID405528126,1,55.9 (active)
CLDN12 (claudin 12),SID405528126,2,51 (active)
CLDN12 (claudin 12),SID405528126,3,41.7 (active)
CLDN1 (claudin 1),SID405528123,1,40.6 (active)
CLDN1 (claudin 1),SID405528123,2,47.4 (active)
CLDN1 (claudin 1),SID405528123,3,45.3 (active)
MORC2 (MORC family CW-type zinc finger 2),SID405527022,1,38.1 (active)
MORC2 (MORC family CW-type zinc finger 2),SID405527022,2,28.7 (active)
MORC2 (MORC family CW-type zinc finger 2),SID405527022,3,36.8 (active)
RPA1 (replication protein A1),SID405527259,1,60.8 (active)
RPA1 (replication protein A1),SID405527259,1,36.2 (active)
RPA1 (replication protein A1),SID405527259,2,43.3 (active)
RPA1 (replication protein A1),SID405527259,2,45.6 (active)
RPA1 (replication protein A1),SID405527259,3,35.6 (active)
RPA1 (replication protein A1),SID405527259,3,35.7 (active)
CHRAC1 (chromatin accessibility complex subunit 1),SID405528120,1,68.5 (active)
CHRAC1 (chromatin accessibility complex subunit 1),SID405528120,2,62.4 (active)
CHRAC1 (chromatin accessibility complex subunit 1),SID405528120,3,62 (active)
SPHK1 (sphingosine kinase 1),SID405527656,1,60.9 (active)
SPHK1 (sphingosine kinase 1),SID405527656,2,49.9 (active)
SPHK1 (sphingosine kinase 1),SID405527656,3,46.7 (active)

Sorted by “viability, normalised (%)” (ascending): some entries from above
Gene,PubChem SID,technical replicate,"viability, normalised (%)"
MORC2 (MORC family CW-type zinc finger 2),SID405527022,1,38.1 (active)
CLDN1 (claudin 1),SID405528123,1,40.6 (active)
CLDN12 (claudin 12),SID405528126,3,41.7 (active)
CLDN1 (claudin 1),SID405528123,3,45.3 (active)
CLDN1 (claudin 1),SID405528123,2,47.4 (active)
CLDN12 (claudin 12),SID405528126,2,51 (active)
CLDN12 (claudin 12),SID405528126,1,55.9 (active)

The list goes on:
Gene,PubChem SID,technical replicate,"viability, normalised (%)"
SGF29 (SAGA complex associated factor 29),SID405528077,1,97.6
SGF29 (SAGA complex associated factor 29),SID405528077,2,58.6 (active)
SGF29 (SAGA complex associated factor 29),SID405528077,3,101
FBXO10 (F-box protein 10),SID405526780,1,48.2 (active)
FBXO10 (F-box protein 10),SID405526780,2,41.8 (active)
FBXO10 (F-box protein 10),SID405526780,3,54.7 (active)
SMPD2 (sphingomyelin phosphodiesterase 2),SID405526719,1,83.7
SMPD2 (sphingomyelin phosphodiesterase 2),SID405526719,2,52.4 (active)
SMPD2 (sphingomyelin phosphodiesterase 2),SID405526719,3,54 (active)
LRRK2 (leucine rich repeat kinase 2),SID405527687,1,68.8 (active)
LRRK2 (leucine rich repeat kinase 2),SID405527687,2,53.7 (active)
LRRK2 (leucine rich repeat kinase 2),SID405527687,3,65.4 (active)
RAI1 (retinoic acid induced 1),SID405527227,1,33.3 (active)
RAI1 (retinoic acid induced 1),SID405527227,2,36.7 (active)
RAI1 (retinoic acid induced 1),SID405527227,3,42.1 (active)
DRD1 (dopamine receptor D1),SID405526734,1,53.9 (active)
DRD1 (dopamine receptor D1),SID405526734,2,48.9 (active)
DRD1 (dopamine receptor D1),SID405526734,3,50.4 (active)
NAGK (N-acetylglucosamine kinase),SID405528542,1,55.4 (active)
NAGK (N-acetylglucosamine kinase),SID405528542,2,42.3 (active)
NAGK (N-acetylglucosamine kinase),SID405528542,3,40.4 (active)
CLDN7 (claudin 7),SID405528140,1,49.2 (active)
CLDN7 (claudin 7),SID405528140,2,46.6 (active)
CLDN7 (claudin 7),SID405528140,3,37.7 (active)
DDX5 (DEAD-box helicase 5),SID405528194,1,51.6 (active)
DDX5 (DEAD-box helicase 5),SID405528194,1,74.4 (active)
DDX5 (DEAD-box helicase 5),SID405528194,2,72.1 (active)
DDX5 (DEAD-box helicase 5),SID405528194,2,69.3 (active)
DDX5 (DEAD-box helicase 5),SID405528194,3,54.7 (active)
DDX5 (DEAD-box helicase 5),SID405528194,3,56 (active)
STK32C (serine/threonine kinase 32C),SID405527761,1,81.5
STK32C (serine/threonine kinase 32C),SID405527761,2,38.2 (active)
STK32C (serine/threonine kinase 32C),SID405527761,3,53 (active)
